In PMC10805788:
Results are given in words; binding and its absence hold for the method and conditions named. In cells and extracts the contact can be indirect. Here binding means that the protein was enriched with, or labelled near, the bait; the list need not be complete. For part of these data: A no says only that the protein was not detected with the bait. Sequences can lack the tags named with a protein. Blank lines part the entries; values can stand above or below the molecule they belong to.

What was measured:
[1] = molecular target: T1, Rh1-TurboID fusion protein (Rh1::TbID) (Drosophila melanogaster) (UniProt P06002); experiment: proximity labelling; Rh1::TbID^wt flies against wild-type control, white light 12 h; membrane proteins (RIPA) pulled down with streptavidin magnetic beads, SDS-PAGE, silver-stained bands excised, in-gel trypsin digest, LC-MS/MS; at least five peptides and >= threefold more peptides than control; two experiments
T1 sequence: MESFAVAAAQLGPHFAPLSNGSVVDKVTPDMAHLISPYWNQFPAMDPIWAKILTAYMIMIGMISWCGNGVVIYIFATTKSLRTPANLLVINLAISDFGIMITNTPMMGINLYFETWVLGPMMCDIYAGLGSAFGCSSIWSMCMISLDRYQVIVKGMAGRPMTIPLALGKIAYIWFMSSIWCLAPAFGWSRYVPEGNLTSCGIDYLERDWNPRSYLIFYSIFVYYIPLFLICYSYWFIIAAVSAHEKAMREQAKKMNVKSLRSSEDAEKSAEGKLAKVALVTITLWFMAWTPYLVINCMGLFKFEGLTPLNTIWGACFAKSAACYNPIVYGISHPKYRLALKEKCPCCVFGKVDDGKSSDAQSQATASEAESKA

[2] = molecular target: T1, Rh1-TurboID fusion protein (Rh1::TbID) (Drosophila melanogaster); experiment: as above; remark: listed apart in the source
[3] = molecular target: T1, Rh1-TurboID fusion protein (Rh1::TbID) (Drosophila melanogaster); experiment: condition: only flies kept in the dark (rhodopsin not light-activated); proximity labelling; as a1, but flies kept in the dark (no metarhodopsin); streptavidin-HRP blot of head extracts
[4] = molecular target: T1, Rh1-TurboID fusion protein (Rh1::TbID) (Drosophila melanogaster); experiment: proximity labelling; Rh1::TbID flies against wild-type control; streptavidin pull-down of soluble and membrane proteins, on-bead trypsin digest, LC-MS/MS with label-free quantification, triplicate; p < 0.05 and fold change > 2
[5] = molecular target: T1, Rh1-TurboID fusion protein (Rh1::TbID) (Drosophila melanogaster); experiment: proximity labelling; TurboID fused to Rh1 in R1-6 photoreceptors of living flies (100 uM biotin in the food); flies illuminated with blue light (2 min to 4 h; native Rh1 band also seen in the dark); head extracts or soluble/membrane fractions on 12% SDS gels, blots probed with streptavidin-HRP; backgrounds wild type, ninaE17, arr2-3, ninaA2

binding [1]: binds
Molecule: ER Membrane Protein Complex 1 (EMC1)

binding [2]: binds
binding [3]: no binding
binding [4]: binds
binding [5]: binds
B1: arrestin 2 (protein, UniProt P19107 1-401)
chain: MVVSVKVFKKATPNGKVTFYLGRRDFIDHIDYCDPVDGVIVVEPDYLKNRKVFGQLATTYRYGREEDEVMGVKFSKELILCREQIVPMTNPNMEMTPMQEKLVRKLGSNAYPFTFHFPPNSPSSVTLQQEGDDNGKPLGVEYTIRAFVGDSEDDRQHKRSMVSLVIKKLQYAPLNRGQRLPSSLVSKGFTFSNGKISLEVTLDREIYYHGEKTAATVQVSNNSKKSVKSIKCFIVQHTEITMVNAQFSKHVAQLETKEGCPITPGANLTKTFYLIPLAANNKDRHGIALDGHLKDEDVNLASSTMVQEGKSTGDACGIVISYSVRIKLNCGTLGGEMQTDVPFKLLQPAPGTIEKKRSNAMKKMKSIEQHRNVKGYYQDDDDNIVFEDFAKMRMNNVNMAD

binding [2]: binds
B2: Oxysterol Binding Protein Orp8 (protein, UniProt B7Z0M9 1-957)
chain: MNLLQRIANWASDNRDGNVADKSAADAAKLNRKESYKAQRKNYRREKKRVASELMNSLQDPAVIVLADWLKVRGTLKSWTKLWCVLKPGLLLIYKSQKTKSSHWVGTVMLTSCQVIERPSKKDGFCFKLFHPLEQSIWAPRGPDKETIGAVVQPLPTAYLIFRAPSQAAGKCWMDALELSLRCSALLLRSNSSTGTAPTSSYIGEPLPVSHETQWSEADYEKHFNDHGKWAQFLALPSAEVDTSRSDTSLSAPRTPTPLLQQLYTSAVSNWERTKRLPRFGHQSEQRKTSYSDASSAEQGVGVGLSLLQRKRRHLSPMSKSMSLGATLCNSSSSEDEDEGYNHSQTGLRPVSAPPDCLMMPRFRLNVKDLDADSQNEAPNAVMSGLESESESDPAEPAQDDVVDQQCVETSYVPFTEEEFGEQGEQVEELAEENKSLIWCIVKQVRPGMDLSKVVLPTFILEPRSFLDKLSDSYYHADLLSKAVQEDDAFTRMKLVVQWYLSSFYKKPKGLKKPYNPILGERFRCYWQHPSGSRTFYIAEQVSHHPPVSAFYVTNREDGFSITCSILAKSKFYGNSTSAVLEGAATMTLLPRGECYTATTPYAHCKGILMGTLSMELGGKINIECENTGYRTELEFKLKPFLGGADATNVVVGKIKLGKETLATINGHWDKECRVKDSKTGEETVLFKVDAETRSKRLTRYMVPLDLQEANESQRLWQRVSEAIANEDQVAATEEKTVLEERQRADAKERLSSDSVHMPDLFELDSYGQWLYKYADLRPWDSRNDVRQYECQFKVLTQTRHKSVPIVHGAEMIHPLRSSIETLSRTQRQSPAGQPLPPGGSAVPKAKNKSLVLAPRDTNSDSSQSPQGAVKRSSSSAIKQLALAVDQVNRVLEQHTRQLNEISQRLERMQYSPPPSSMSAHSLHMLGGGVSQSTVIKSLIYALIGLAFSLILRWLFK
